Results: article PMC12686931
Where two headings read alike, the source gives them in different places. Results are given in words; binding and its absence hold for the method and conditions named. Binding seen in cells or lysates may run through a third protein. These calls come from enrichment with a bait or labelling near it, and not all partners need be listed.

By UniProt entry, the sequences of proteins in these tests, tags left out.
UniProt Q62167: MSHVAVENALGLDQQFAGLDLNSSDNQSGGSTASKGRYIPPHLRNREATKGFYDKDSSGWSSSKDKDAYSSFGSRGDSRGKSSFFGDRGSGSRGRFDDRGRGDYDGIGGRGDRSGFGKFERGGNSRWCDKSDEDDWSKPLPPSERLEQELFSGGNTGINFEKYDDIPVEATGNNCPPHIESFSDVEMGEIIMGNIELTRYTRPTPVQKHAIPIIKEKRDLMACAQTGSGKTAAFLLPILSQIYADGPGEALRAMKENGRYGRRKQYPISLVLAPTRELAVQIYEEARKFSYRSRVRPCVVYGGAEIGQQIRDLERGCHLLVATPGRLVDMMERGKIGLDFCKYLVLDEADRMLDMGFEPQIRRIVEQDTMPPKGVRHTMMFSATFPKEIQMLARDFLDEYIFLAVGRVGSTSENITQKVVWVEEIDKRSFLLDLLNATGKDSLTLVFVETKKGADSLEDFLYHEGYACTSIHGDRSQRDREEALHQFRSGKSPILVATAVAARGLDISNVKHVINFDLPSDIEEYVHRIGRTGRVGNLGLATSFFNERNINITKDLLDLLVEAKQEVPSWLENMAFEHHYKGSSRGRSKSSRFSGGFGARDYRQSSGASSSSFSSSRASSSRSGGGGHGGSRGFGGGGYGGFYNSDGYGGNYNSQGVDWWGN
UniProt O00571: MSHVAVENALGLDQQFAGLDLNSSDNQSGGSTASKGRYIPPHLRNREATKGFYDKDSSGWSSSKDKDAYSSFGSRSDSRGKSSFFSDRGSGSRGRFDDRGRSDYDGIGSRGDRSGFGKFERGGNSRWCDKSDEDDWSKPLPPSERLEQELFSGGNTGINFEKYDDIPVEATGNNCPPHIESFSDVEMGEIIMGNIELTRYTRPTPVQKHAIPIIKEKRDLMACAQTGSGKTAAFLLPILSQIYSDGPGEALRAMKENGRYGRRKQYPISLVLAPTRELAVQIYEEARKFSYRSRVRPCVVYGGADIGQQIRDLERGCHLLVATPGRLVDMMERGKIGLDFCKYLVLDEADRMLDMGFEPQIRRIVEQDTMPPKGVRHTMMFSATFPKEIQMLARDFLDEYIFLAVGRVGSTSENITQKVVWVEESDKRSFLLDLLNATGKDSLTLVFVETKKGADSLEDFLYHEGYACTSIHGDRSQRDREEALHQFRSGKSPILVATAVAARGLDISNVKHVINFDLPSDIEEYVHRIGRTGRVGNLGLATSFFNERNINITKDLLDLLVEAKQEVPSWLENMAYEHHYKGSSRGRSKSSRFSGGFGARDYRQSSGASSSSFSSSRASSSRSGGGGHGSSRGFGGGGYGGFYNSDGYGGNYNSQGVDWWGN

Columns and labels:
Assay in all cases: affinity purification with mass spectrometry; endogenous ZMYND8 immunoprecipitated from MDA-MB-231 and 4T1 cell lysates; SDS-PAGE, silver staining, LC-MS/MS
[1] = target: T1, Zinc finger MYND-type containing 8 (ZMYND8), endogenous, mouse (mouse (endogenous in 4T1)) (UniProt A2A484)
T1 sequence: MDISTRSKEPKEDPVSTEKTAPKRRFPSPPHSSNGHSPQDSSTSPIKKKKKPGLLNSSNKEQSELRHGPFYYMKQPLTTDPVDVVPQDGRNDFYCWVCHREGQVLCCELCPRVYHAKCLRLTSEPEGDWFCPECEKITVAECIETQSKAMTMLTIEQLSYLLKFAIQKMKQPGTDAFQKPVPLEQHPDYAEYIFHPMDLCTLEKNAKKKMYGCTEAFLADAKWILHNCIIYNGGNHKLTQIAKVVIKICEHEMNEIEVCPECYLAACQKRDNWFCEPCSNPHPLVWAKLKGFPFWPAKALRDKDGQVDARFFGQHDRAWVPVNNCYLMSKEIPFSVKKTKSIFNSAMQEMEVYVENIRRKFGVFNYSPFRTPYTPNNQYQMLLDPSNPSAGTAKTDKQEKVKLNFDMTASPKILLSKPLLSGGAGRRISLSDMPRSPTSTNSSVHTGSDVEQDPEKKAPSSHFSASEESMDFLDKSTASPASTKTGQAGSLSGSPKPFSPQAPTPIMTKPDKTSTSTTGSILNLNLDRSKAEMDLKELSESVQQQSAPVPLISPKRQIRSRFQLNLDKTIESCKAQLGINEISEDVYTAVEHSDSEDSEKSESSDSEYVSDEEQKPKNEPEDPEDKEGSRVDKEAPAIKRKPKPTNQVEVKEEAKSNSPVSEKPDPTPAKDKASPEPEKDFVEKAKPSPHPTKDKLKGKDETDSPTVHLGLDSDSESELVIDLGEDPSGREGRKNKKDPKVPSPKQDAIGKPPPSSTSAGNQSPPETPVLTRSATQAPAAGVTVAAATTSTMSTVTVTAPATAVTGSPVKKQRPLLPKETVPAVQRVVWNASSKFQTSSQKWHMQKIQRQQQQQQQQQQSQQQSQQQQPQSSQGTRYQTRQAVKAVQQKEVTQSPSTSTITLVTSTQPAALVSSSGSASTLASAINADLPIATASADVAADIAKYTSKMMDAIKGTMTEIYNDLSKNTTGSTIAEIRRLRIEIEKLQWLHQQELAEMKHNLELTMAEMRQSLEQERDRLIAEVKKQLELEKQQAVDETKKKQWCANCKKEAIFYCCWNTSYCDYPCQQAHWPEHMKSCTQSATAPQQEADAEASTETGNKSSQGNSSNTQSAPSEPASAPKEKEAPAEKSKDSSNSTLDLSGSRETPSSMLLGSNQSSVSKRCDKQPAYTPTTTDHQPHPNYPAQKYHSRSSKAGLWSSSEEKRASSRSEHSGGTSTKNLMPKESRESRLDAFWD

[2] = target: T2, Zinc finger MYND-type containing 8 (ZMYND8), endogenous, human (human (endogenous in MDA-MB-231)) (UniProt Q9ULU4)
T2 sequence: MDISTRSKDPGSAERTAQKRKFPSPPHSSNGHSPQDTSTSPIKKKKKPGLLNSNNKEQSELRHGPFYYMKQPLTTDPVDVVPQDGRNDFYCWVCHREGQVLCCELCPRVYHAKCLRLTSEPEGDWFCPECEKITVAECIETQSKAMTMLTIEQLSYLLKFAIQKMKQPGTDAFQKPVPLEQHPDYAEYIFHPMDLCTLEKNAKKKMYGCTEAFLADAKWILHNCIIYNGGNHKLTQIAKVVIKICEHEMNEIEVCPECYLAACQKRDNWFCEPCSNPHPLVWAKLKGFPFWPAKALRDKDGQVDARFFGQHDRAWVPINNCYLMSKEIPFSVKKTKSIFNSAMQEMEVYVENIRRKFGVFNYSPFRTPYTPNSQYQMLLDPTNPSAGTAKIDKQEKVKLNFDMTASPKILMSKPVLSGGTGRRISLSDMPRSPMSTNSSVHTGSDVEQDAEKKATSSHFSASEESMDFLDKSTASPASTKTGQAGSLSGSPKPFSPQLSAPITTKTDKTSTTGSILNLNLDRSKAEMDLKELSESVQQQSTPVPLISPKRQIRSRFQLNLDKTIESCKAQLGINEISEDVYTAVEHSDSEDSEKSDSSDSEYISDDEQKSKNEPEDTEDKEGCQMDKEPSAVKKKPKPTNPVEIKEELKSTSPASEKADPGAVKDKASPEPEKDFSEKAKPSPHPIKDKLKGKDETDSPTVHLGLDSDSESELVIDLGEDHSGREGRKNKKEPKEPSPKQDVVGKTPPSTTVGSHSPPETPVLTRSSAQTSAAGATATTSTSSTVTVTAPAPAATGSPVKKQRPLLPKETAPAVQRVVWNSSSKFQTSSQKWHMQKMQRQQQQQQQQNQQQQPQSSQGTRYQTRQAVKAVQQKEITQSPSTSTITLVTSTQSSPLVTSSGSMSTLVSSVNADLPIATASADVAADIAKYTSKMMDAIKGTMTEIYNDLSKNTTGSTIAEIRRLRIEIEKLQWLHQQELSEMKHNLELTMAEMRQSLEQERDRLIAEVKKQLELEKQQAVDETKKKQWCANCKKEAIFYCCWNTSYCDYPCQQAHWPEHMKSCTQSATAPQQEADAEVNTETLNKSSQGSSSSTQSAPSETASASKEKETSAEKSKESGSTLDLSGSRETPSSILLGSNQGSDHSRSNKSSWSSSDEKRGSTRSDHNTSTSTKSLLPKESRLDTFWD

[3] = target: T1, Zinc finger MYND-type containing 8 (ZMYND8), endogenous, mouse (mouse (endogenous in 4T1)); remark: listed apart in the source

## DEAD-box helicase 3 X-linked (DDX3X), endogenous, mouse (from UniProt Q62167 1-662)
[1]
  binding: binds

## DEAD-box helicase 3 X-linked (DDX3X), endogenous, human (from UniProt O00571 1-662)
[2]
  binding: binds

B1: OTU domain-containing protein 4 (OTUD4), endogenous, mouse (enzyme, UniProt B2RRE7 1-1107)
chain: MEAAVGAPDGVDQGGVGPLEDETPMDAYLRKLGLYRKLVAKDGSCLFRAVAEQVLHSQSRHVEVRMACIRYLRENREKFEAFIEGSFEEYLKRLENPQEWVGQVEISALSLMYRKDFVIYQEPNVSPSHVTENNFPEKVLLCFSNGNHYDIVYPITYKDSSAMCQSLLYELLYEKVFKTDVSKIMMGLEASEVAEESNSEISDSEDDSCKSKSTAATDVNGFKPSGSENPKNNGNSADLPLSRKVLKSLNPAVYRNVEYEIWLKSKQAQQKRDYSIAAGLQYEVGDKCHQVRLDHNGKLSNADIHGVHSENGLVLSEELGKKHTPKNLKPPPPESWNTVSGKKMKKPNSGQNFHSDTDYRGPKNLNKPIKAPSALPPRLQHPSSGVRQHAFSSHSTGSQSQKSSSEHKNLSRMPSQITRKPDRERAEDFDHVSRESYYFGLSPEERREKQAIEESRLLYEIQNRDEQAFPALSSSSVSQSPSQNSNACVPRKSSHARDRKGSMRRADAEERKDKDSLRGHTHVDKKPEPSTLEISDDKCTRVSSPSKSKKECPSPVEQKPAEHIPLSNPAPLLVSPEVHLTPAVPSLPATVPAWPSEPTTFGPTGVPAQIPILSVTQTTGPDAAVSQAHLTPSPVPVSIQAVNQPLMPLPQTMSLYQDPLYPGFPCSEKGDRAIAPPYSLCQTGEDLPKDKNILRFFFNLGVKAYSCPMWAPHSYLYPLHQAYMAACRMYPKVPVPVYPQNTWFQEAPPAQSESDCPCTDAHYSLHPEASVNGQMPQAEMGPPAFASPLVIPPSQVSEGHGQLSYQPELESENPGQLLHAEYEESLSGKNMYPQQSFGPNPFLGPVPIAPPFFPHVWYGYPFQGFVENPVMRQNIVLPPDDKGELDLPLENLDLSKECDSVSAVDEFPDARVEGAHSLSAASVSSKHEGRVEQSSQTRKADIDLASGSSAVEGKGHPPTQILNREREPGSAEPEPKRTIQSLKEKPEKVKDPKTAADVVSPGANSVDRLQRPKEESSEDENEVSNILRSGRSKQFYNQTYGSRKYKSDWGSSGRGGYQHVRGEESWKGQPNRSRDEGYQYHRHVRGRPYRGDRRRSGMGDGHRGQHT
[3]
  binding: binds
